{
  "sequences": {"note": "By UniProt entry, the sequences of proteins in these tests, tags left out.", "UniProt P04198": "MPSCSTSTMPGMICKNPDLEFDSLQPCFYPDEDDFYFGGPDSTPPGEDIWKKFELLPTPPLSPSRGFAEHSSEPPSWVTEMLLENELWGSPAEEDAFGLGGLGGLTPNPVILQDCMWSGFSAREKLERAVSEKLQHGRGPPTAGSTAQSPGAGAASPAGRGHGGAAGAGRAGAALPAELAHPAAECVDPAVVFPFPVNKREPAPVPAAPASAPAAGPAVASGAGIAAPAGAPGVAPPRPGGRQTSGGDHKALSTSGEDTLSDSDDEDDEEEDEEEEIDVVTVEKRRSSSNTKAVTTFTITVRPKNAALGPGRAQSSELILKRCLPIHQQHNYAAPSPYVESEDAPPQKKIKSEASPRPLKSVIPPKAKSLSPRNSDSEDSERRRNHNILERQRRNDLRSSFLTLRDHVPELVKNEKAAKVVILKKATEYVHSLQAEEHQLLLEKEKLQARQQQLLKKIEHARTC", "UniProt P61244": "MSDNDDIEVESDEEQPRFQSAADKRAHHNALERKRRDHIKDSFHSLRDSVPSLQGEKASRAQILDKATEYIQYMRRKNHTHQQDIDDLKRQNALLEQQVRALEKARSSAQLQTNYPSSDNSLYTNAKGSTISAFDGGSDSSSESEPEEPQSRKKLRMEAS"},
  "source": "paper PMC10279693",
  "molecular_target": "N-MYC (human (endogenous in CHP-134)) (UniProt P04198)",
  "assay": "co-IP; immunoprecipitation of endogenous N-MYC from CHP-134 cells; Western blot of co-immunoprecipitated material for WDR5 and MAX",
  "note": "Results are given in words; binding and its absence hold for the method and conditions named. Binding seen in cells or lysates may run through a third protein. Some binding calls cover weakened binding; strength is not graded here.",
  "data": [
    {"substance": "MAX (from UniProt P61244 1-160)", "values": [
      {"measurement": "binding", "result": "binds"}
    ]}
  ]
}
